Laboratory results reported in patent US20190153078A1.
No constants are given. Whether binding was seen depends on the method and setting. Some binding calls cover weakened binding; strength is not graded here.

Legend:
[1] = biological target: C. difficile toxin B from strain VPI10463 (ATCC 43255), toxinotype 0 (Clostridium difficile) (UniProt P18177); assay: BLI (Octet Red96)
[2] = biological target: C. difficile toxin B from strain VPI10463 (ATCC 43255), toxinotype 0 (Clostridium difficile) (UniProt P18177); assay: Western blot, toxin of toxinotype 0
[3] = biological target: C. difficile toxin B from strain VPI10463 (ATCC 43255), toxinotype 0 (Clostridium difficile) (UniProt P18177); assay: Western blot, Toxinotype Binding (toxinotype 0)
[4] = biological target: C. difficile toxin A from strain VPI10463 (ATCC 43255), toxinotype 0 (Clostridium difficile) (UniProt P16154); assay: BLI (Octet Red96)
[5] = biological target: C. difficile toxin A from strain VPI10463 (ATCC 43255), toxinotype 0 (Clostridium difficile) (UniProt P16154); assay: Western blot, toxin of toxinotype 0
[6] = biological target: C. difficile toxin A from strain VPI10463 (ATCC 43255), toxinotype 0 (Clostridium difficile) (UniProt P16154); assay: Western blot, Toxinotype Binding (toxinotype 0)

Measured: binding

B1: B6 antibody (antibody, V domains shown)
VH: EVQLVESGGGLVQPGGSLRLSCAASGFTFTTSTMNWVRQAPGKGLEWVSYITRTSTVIYYADSVKGRFTISRDNAKNSLYLQMSSLRAEDTAVYYCARGVRDIGGNGFDYWGQGTLVTVSS
VL: EIVLTQSPGTLSLSPGERATLSCRASQSVTSSYLAWYQQKTGQAPRLLIYGASSRATGIPDRFSGSGSGTDFTLTIARLEPEDFAVYYCQQYGSSPPYTFGQGTKLEIKR
binds: [1] | [2] | [3]

B2: A5 antibody (antibody, V domains shown)
VH: QVHLVESGGGVVQPGRSLRLSCATFGLNFSDYGFHWVRQAPGKGLEWVAVTSYDGSNKYYAEFVKGRFTISRDNYKNTVYLQMNSLRLEDTAVYYCARDLAPYNFWSGYGNNWFDPWGQGTLVTVSS
VL: EIVMTQSPATLSVSPGERATLSCRASQSISSNLAWYQQKPGQAPRLLIYDASTRATGIPARFSGSGSGTEFTLTISSLQSEDFAVYYCQQYNDWLVTFGQGTKVEIKR
binds: [4] | [5] | [6]
